Source: paper doi:10.1101/2024.10.27.620453
No constants are given. Whether binding was seen depends on the method and setting. For part of these data: Binding seen in cells or lysates may run through a third protein. Some binding calls cover weakened binding; strength is not graded here. For part of these data: Tags and fused reporters may be left off the sequences shown.

By UniProt entry, the sequences of proteins in these tests, tags left out. Where a name states a change or a piece, a line headed by the entry shows the natural chain unless it says otherwise. Chains listed by the source or under a name are the forms on record and can include a tag or linker. Residues count along the entry.
UniProt O75460: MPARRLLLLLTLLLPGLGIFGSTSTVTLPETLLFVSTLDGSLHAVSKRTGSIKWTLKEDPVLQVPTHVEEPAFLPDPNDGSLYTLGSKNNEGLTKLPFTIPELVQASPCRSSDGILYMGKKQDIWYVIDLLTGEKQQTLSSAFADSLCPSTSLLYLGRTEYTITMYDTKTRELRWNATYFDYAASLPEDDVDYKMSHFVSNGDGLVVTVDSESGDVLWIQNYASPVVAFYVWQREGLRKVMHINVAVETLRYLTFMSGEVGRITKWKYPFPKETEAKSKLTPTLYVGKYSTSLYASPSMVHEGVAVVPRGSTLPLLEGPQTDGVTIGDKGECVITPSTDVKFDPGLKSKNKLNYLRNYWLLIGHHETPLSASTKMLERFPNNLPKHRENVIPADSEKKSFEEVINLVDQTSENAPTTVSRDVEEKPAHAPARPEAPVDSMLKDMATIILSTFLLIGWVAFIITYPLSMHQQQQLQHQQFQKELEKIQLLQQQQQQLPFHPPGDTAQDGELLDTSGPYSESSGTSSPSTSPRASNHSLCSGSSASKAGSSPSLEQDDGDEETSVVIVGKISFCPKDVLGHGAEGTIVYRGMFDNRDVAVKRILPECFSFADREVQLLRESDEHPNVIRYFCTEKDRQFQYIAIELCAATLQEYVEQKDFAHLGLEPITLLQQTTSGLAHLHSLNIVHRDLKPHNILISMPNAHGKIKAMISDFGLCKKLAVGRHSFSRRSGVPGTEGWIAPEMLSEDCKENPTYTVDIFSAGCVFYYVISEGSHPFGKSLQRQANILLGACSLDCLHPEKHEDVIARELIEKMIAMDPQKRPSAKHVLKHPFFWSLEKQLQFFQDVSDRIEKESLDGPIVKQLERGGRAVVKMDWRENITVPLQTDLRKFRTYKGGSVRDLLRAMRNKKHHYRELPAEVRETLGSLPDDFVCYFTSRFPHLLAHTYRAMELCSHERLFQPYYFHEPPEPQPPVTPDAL
Flagged IRE1 WT: residues 19-977 of O75460
Flagged IRE1 N683D mutant (O75460, form named): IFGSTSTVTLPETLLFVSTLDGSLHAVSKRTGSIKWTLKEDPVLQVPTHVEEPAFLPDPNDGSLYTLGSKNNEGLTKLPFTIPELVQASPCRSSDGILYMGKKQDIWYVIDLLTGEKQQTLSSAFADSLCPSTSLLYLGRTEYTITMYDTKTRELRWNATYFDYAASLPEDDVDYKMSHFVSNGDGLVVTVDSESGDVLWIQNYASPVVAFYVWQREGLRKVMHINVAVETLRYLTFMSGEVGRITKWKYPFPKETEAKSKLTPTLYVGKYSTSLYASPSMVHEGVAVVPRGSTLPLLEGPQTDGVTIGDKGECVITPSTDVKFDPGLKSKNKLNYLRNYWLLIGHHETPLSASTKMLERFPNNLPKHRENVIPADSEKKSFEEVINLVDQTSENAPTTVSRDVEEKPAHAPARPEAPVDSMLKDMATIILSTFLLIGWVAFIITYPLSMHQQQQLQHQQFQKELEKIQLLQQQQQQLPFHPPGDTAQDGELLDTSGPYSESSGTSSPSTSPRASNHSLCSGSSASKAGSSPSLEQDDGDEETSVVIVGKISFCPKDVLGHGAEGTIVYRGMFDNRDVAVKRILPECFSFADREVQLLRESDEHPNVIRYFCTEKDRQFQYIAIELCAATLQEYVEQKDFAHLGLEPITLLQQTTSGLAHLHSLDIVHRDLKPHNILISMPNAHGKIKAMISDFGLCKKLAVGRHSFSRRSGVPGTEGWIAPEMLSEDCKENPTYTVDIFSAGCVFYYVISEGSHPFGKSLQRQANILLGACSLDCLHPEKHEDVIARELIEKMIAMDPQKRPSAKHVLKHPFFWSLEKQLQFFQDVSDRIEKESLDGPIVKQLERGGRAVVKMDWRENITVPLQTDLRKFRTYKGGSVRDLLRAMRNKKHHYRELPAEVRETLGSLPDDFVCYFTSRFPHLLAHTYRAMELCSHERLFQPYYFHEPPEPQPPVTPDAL
UniProt P53618: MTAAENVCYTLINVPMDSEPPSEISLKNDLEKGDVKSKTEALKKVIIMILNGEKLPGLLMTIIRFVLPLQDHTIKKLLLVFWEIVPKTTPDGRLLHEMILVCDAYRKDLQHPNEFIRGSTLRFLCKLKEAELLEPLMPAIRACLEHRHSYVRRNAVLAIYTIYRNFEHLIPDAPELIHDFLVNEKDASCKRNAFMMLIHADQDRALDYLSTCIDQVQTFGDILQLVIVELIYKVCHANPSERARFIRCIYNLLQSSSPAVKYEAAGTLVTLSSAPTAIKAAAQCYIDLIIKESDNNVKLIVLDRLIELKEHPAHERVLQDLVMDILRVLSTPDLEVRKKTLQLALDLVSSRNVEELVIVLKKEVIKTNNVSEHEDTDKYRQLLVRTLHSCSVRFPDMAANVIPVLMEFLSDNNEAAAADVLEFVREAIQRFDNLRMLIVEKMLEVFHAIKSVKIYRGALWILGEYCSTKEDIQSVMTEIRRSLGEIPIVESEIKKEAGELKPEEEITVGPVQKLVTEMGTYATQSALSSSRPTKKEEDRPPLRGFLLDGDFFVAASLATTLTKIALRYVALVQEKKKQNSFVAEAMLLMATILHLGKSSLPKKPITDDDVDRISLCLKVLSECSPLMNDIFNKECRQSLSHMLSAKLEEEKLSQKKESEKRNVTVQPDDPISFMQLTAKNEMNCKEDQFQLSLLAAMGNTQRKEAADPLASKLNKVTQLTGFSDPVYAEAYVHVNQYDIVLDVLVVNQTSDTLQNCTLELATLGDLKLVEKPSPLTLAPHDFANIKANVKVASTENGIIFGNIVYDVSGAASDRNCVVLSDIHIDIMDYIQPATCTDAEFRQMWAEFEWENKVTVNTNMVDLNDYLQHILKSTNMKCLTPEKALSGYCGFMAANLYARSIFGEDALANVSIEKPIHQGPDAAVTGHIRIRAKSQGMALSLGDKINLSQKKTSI

How the values were obtained:
[1] = molecular target: Gal4 DNA binding domain-IRE1 K599A (bait, pB66) (human) (UniProt O75460); assay: two-hybrid
[2] = molecular target: Flagged IRE1 N683D mutant (human) (UniProt O75460); assay: co-IP
Flagged IRE1 WT (human) = Flagged IRE1 WT (human) (UniProt O75460); assay: co-IP

Gal4 Activation Domain-COPB1 (prey, pP7) (from UniProt P53618 1-953)
binding [1]: binds

B1: PTPN1-mCherry (plasmid pPTP1BD181A-mCherry) (enzyme, UniProt P18031 1-435)
chain: MEMEKEFEQIDKSGSWAAIYQDIRHEASDFPCRVAKLPKNKNRNRYRDVSPFDHSRIKLHQEDNDYINASLIKMEEAQRSYILTQGPLPNTCGHFWEMVWEQKSRGVVMLNRVMEKGSLKCAQYWPQKEEKEMIFEDTNLKLTLISEDIKSYYTVRQLELENLTTQETREILHFHYTTWPAFGVPESPASFLNFLFKVRESGSLSPEHGPVVVHCSAGIGRSGTFCLADTCLLLMDKRKDPSSVDIKKVLLEMRKFRMGLIQTADQLRFSYLAVIEGAKFIMGDSSVQDQWKELSHEDLEPPPEHIPPPPRPPKRILEPHNGKCREFFPNHQWVKEETQEDKDCPIKEEKGSPLNAAPYGIESMSQDTEVRSRVVGGSLRGAQAASPAKGEPSLPEKDEDHALSYWKPFLVNMCVATVLTAGAYLCYRFLFNSNT
binding [2]: binds | binding (Flagged IRE1 WT (human)): binds

B2: PTPN1-Gal4 Activation Domain (prey, pP13, prey-AD) (enzyme, UniProt P18031 1-435)
chain: MEMEKEFEQIDKSGSWAAIYQDIRHEASDFPCRVAKLPKNKNRNRYRDVSPFDHSRIKLHQEDNDYINASLIKMEEAQRSYILTQGPLPNTCGHFWEMVWEQKSRGVVMLNRVMEKGSLKCAQYWPQKEEKEMIFEDTNLKLTLISEDIKSYYTVRQLELENLTTQETREILHFHYTTWPDFGVPESPASFLNFLFKVRESGSLSPEHGPVVVHCSAGIGRSGTFCLADTCLLLMDKRKDPSSVDIKKVLLEMRKFRMGLIQTADQLRFSYLAVIEGAKFIMGDSSVQDQWKELSHEDLEPPPEHIPPPPRPPKRILEPHNGKCREFFPNHQWVKEETQEDKDCPIKEEKGSPLNAAPYGIESMSQDTEVRSRVVGGSLRGAQAASPAKGEPSLPEKDEDHALSYWKPFLVNMCVATVLTAGAYLCYRFLFNSNT
binding [1]: no binding

B3: Gal4 Activation Domain-PTPN1 (prey, pP7, AD-prey) (enzyme, UniProt P18031 1-435)
chain: MEMEKEFEQIDKSGSWAAIYQDIRHEASDFPCRVAKLPKNKNRNRYRDVSPFDHSRIKLHQEDNDYINASLIKMEEAQRSYILTQGPLPNTCGHFWEMVWEQKSRGVVMLNRVMEKGSLKCAQYWPQKEEKEMIFEDTNLKLTLISEDIKSYYTVRQLELENLTTQETREILHFHYTTWPDFGVPESPASFLNFLFKVRESGSLSPEHGPVVVHCSAGIGRSGTFCLADTCLLLMDKRKDPSSVDIKKVLLEMRKFRMGLIQTADQLRFSYLAVIEGAKFIMGDSSVQDQWKELSHEDLEPPPEHIPPPPRPPKRILEPHNGKCREFFPNHQWVKEETQEDKDCPIKEEKGSPLNAAPYGIESMSQDTEVRSRVVGGSLRGAQAASPAKGEPSLPEKDEDHALSYWKPFLVNMCVATVLTAGAYLCYRFLFNSNT
binding [1]: no binding

B4: Gal4 Activation Domain-HNRNPL (prey, pP7) (protein, UniProt P14866 1-589)
chain: MSRRLLPRAEKRRRRLEQRQQPDEQRRRSGAMVKMAAAGGGGGGGRYYGGGSEGGRAPKRLKTDNAGDQHGGGGGGGGGAGAAGGGGGGENYDDPHKTPASPVVHIRGLIDGVVEADLVEALQEFGPISYVVVMPKKRQALVEFEDVLGACNAVNYAADNQIYIAGHPAFVNYSTSQKISRPGDSDDSRSVNSVLLFTILNPIYSITTDVLYTICNPCGPVQRIVIFRKNGVQAMVEFDSVQSAQRAKASLNGADIYSGCCTLKIEYAKPTRLNVFKNDQDTWDYTNPNLSGQGDPGSNPNKRQRQPPLLGDHPAEYGGPHGGYHSHYHDEGYGPPPPHYEGRRMGPPVGGHRRGPSRYGPQYGHPPPPPPPPEYGPHADSPVLMVYGLDQSKMNCDRVFNVFCLYGNVEKVKFMKSKPGAAMVEMADGYAVDRAITHLNNNFMFGQKLNVCVSKQPAIMPGQSYGLEDGSCSYKDFSESRNNRFSTPEQAAKNRIQHPSNVLHFFNAPLEVTEENFFEICDELGVKRPSSVKVFSGKSERSSSGLLEWESKSDALETLGFLNHYQMKNPNGPYPYTLKLCFSTAQHAS
binding [1]: no binding

B5: Gal4 Activation Domain-UPF1 (prey, pP7) (protein, UniProt Q92900 1-1129)
chain: MSVEAYGPSSQTLTFLDTEEAELLGADTQGSEFEFTDFTLPSQTQTPPGGPGGPGGGGAGGPGGAGAGAAAGQLDAQVGPEGILQNGAVDDSVAKTSQLLAELNFEEDEEDTYYTKDLPIHACSYCGIHDPACVVYCNTSKKWFCNGRGNTSGSHIVNHLVRAKCKEVTLHKDGPLGETVLECYNCGCRNVFLLGFIPAKADSVVVLLCRQPCASQSSLKDINWDSSQWQPLIQDRCFLSWLVKIPSEQEQLRARQITAQQINKLEELWKENPSATLEDLEKPGVDEEPQHVLLRYEDAYQYQNIFGPLVKLEADYDKKLKESQTQDNITVRWDLGLNKKRIAYFTLPKTDSGNEDLVIIWLRDMRLMQGDEICLRYKGDLAPLWKGIGHVIKVPDNYGDEIAIELRSSVGAPVEVTHNFQVDFVWKSTSFDRMQSALKTFAVDETSVSGYIYHKLLGHEVEDVIIKCQLPKRFTAQGLPDLNHSQVYAVKTVLQRPLSLIQGPPGTGKTVTSATIVYHLARQGNGPVLVCAPSNIAVDQLTEKIHQTGLKVVRLCAKSREAIDSPVSFLALHNQIRNMDSMPELQKLQQLKDETGELSSADEKRYRALKRTAERELLMNADVICCTCVGAGDPRLAKMQFRSILIDESTQATEPECMVPVVLGAKQLILVGDHCQLGPVVMCKKAAKAGLSQSLFERLVVLGIRPIRLQVQYRMHPALSAFPSNIFYEGSLQNGVTAADRVKKGFDFQWPQPDKPMFFYVTQGQEEIASSGTSYLNRTEAANVEKITTKLLKAGAKPDQIGIITPYEGQRSYLVQYMQFSGSLHTKLYQEVEIASVDAFQGREKDFIILSCVRANEHQGIGFLNDPRRLNVALTRARYGVIIVGNPKALSKQPLWNHLLNYYKEQKVLVEGPLNNLRESLMQFSKPRKLVNTINPGARFMTTAMYDAREAIIPGSVYDRSSQGRPSSMYFQTHDQIGMISAGPSHVAAMNIPIPFNLVMPPMPPPGYFGQANGPAAGRGTPKGKTGRGGRQKNRFGLPGPSQTNLPNSQASQDVASQPFSQGALTQGYISMSQPSQMSQPGLSQPELSQDSYLGDEFKSQIDVALSQDSTYQGERAYQHGGVTGLSQY
binding [1]: no binding

B6: Gal4 Activation Domain-RPN1 (prey, pP7) (protein, UniProt P04843 1-607)
chain: MEAPAAGLFLLLLLGTWAPAPGSASSEAPPLINEDVKRTVDLSSHLAKVTAEVVLAHLGGGSTSRATSFLLALEPELEARLAHLGVQVKGEDEEENNLEVRETKIKGKSGRFFTVKLPVALDPGAKISVIVETVYTHVLHPYPTQITQSEKQFVVFEGNHYFYSPYPTKTQTMRVKLASRNVESYTKLGNPTRSEDLLDYGPFRDVPAYSQDTFKVHYENNSPFLTITSMTRVIEVSHWGNIAVEENVDLKHTGAVLKGPFSRYDYQRQPDSGISSIRSFKTILPAAAQDVYYRDEIGNVSTSHLLILDDSVEMEIRPRFPLFGGWKTHYIVGYNLPSYEYLYNLGDQYALKMRFVDHVFDEQVIDSLTVKIILPEGAKNIEIDSPYEISRAPDELHYTYLDTFGRPVIVAYKKNLVEQHIQDIVVHYTFNKVLMLQEPLLVVAAFYILFFTVIIYVRLDFSITKDPAAEARMKVACITEQVLTLVNKRIGLYRHFDETVNRYKQSRDISTLNSGKKSLETEHKALTSEIALLQSRLKTEGSDLCDRVSEMQKLDAQVKELVLKSAVEAERLVAGKLKKDTYIENEKLISGKRQELVTKIDHILDAL
binding [1]: no binding

B7: Gal4 Activation Domain-PDIA4 (prey, pP7) (protein, UniProt P13667 1-645)
chain: MRPRKAFLLLLLLGLVQLLAVAGAEGPDEDSSNRENAIEDEEEEEEEDDDEEEDDLEVKEENGVLVLNDANFDNFVADKDTVLLEFYAPWCGHCKQFAPEYEKIANILKDKDPPIPVAKIDATSASVLASRFDVSGYPTIKILKKGQAVDYEGSRTQEEIVAKVREVSQPDWTPPPEVTLVLTKENFDEVVNDADIILVEFYAPWCGHCKKLAPEYEKAAKELSKRSPPIPLAKVDATAETDLAKRFDVSGYPTLKIFRKGRPYDYNGPREKYGIVDYMIEQSGPPSKEILTLKQVQEFLKDGDDVIIIGVFKGESDPAYQQYQDAANNLREDYKFHHTFSTEIAKFLKVSQGQLVVMQPEKFQSKYEPRSHMMDVQGSTQDSAIKDFVLKYALPLVGHRKVSNDAKRYTRRPLVVVYYSVDFSFDYRAATQFWRSKVLEVAKDFPEYTFAIADEEDYAGEVKDLGLSESGEDVNAAILDESGKKFAMEPEEFDSDTLREFVTAFKKGKLKPVIKSQPVPKNNKGPVKVVVGKTFDSIVMDPKKDVLIEFYAPWCGHCKQLEPVYNSLAKKYKGQKGLVIAKMDATANDVPSDRYKVEGFPTIYFAPSGDKKNPVKFEGGDRDLEHLSKFIEEHATKLSRTKEEL
binding [1]: no binding
